The data set in a line: peptide synthesis. Conditions: late stage modification step.

Experimental findings from patent US6809177 (dated 2004) are described below.

As to deoxymulundocandin, the step yield worked out at 75% (run 1) and 30% yield (run 2).
